The structures appear in SMILES notation. The structures given here were assigned with low confidence; some may be wrong. Some results are limits rather than exact numbers.

The chains behind the UniProt entries cited, without tags or fusion partners.
UniProt Q9UM07, whole entry: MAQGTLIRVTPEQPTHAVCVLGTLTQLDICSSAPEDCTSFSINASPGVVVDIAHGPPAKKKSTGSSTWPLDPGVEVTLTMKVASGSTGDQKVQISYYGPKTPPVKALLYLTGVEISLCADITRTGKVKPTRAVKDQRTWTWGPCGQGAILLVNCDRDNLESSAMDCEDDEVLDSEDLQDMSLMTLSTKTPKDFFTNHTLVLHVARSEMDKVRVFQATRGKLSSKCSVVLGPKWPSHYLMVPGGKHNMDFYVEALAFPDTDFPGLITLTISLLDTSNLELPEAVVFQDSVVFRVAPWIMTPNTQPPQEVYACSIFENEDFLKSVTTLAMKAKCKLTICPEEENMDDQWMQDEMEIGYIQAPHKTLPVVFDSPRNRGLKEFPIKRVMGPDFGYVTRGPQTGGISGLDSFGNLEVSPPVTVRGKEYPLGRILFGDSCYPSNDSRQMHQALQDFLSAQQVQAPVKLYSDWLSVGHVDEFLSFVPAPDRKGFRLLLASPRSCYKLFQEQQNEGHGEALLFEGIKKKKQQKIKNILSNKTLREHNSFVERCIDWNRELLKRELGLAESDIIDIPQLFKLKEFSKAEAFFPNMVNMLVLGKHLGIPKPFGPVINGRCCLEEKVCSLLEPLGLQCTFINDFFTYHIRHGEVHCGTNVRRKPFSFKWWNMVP
UniProt Q9Z183, whole entry: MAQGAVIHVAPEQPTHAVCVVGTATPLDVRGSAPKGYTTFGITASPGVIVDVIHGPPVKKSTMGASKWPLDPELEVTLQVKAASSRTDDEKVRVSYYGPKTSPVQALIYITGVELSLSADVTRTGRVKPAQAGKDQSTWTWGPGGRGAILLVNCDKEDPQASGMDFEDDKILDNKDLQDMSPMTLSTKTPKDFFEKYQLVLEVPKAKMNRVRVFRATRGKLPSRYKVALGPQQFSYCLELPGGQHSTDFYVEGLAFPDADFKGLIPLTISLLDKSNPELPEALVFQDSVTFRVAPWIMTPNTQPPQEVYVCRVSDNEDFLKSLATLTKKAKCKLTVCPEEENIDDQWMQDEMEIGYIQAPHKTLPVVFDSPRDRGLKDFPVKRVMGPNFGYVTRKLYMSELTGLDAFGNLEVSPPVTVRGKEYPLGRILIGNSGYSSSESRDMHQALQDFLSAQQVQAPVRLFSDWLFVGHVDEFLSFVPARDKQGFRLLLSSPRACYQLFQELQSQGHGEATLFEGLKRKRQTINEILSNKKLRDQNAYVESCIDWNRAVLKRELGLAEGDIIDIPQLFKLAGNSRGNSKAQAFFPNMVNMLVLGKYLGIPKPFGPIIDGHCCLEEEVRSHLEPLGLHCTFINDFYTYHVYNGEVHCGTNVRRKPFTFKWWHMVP

This is an account of results in patent US9963448B2, “Bicyclic inhibitors of PAD4” (Padlock Therapeutics, Inc., priority 2015, dated 2018).

For one assay, the target named is hPAD4 (Homo sapiens, UniProt Q9UM07). Briefly: hPAD4 RFMS (RapidFire mass spectrometry) PAD4 inhibition assay.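 On hPAD4 RFMS pIC50: grade E means pIC50 at most 4 and F means pIC50 4.0 to 5.0.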 To be noted: hPAD4 enzyme, RFMS readout, tested form: HCl; for hPAD4 RFMS pIC50: pIC50=−log(IC50); for IC50: read-out: hPAD4 RFMS IC50 μM.
The next assay addresses mPAD4 (Mus musculus, UniProt Q9Z183). As to the kind of experiment: mPAD4 RFMS PAD4 inhibition assay.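 On mPAD4 RFMS pIC50: grade E means pIC50 at most 4 and F means pIC50 4.0 to 5.0.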 As to conditions: mPAD4, RFMS readout, tested form: HCl; for mPAD4 RFMS pIC50: pIC50=−log(IC50); for IC50: read-out: mPAD4 RFMS IC50 μM.

On to `COc1cc(C(=O)N2CC[C@H]3CCN[C@H]3C2)cc2nc(-c3cc4cccnc4n3CC(F)(F)F)n(C)c12`, for which, at hPAD4, the “hPAD4 RFMS pIC50” value is “F (pIC50 of 4.0-5.0)” and the IC50 is > 10 µM.

As to `COc1cc(C(=O)N2CC[C@@H]3CCN[C@@H]3C2)cc2nc(-c3cc4cccnc4n3CC(F)(F)F)n(C)c12`, at mPAD4, the “mPAD4 RFMS pIC50” value is recorded as “G (pIC50 of 5.0-6.0)” and the IC50 fell in the range of 1 to 5 µM. For the same compound, on hPAD4, the “hPAD4 RFMS pIC50” value was “G (pIC50 of 5.0-6.0)” and the IC50 was 1 to 5 µM.

With `COc1cc(C(=O)N2CCC3CCNC3C2)cc2nc(-c3cc4cccnc4n3CC(F)(F)F)n(C)c12` (stereo not shown), on mPAD4, the “mPAD4 RFMS pIC50” value was “G (pIC50 of 5.0-6.0)” and the IC50 lay within 5 to 10 µM. At hPAD4, the “hPAD4 RFMS pIC50” value was “G (pIC50 of 5.0-6.0)” and the IC50 lay in the range of 1 to 5 µM.
